Data taken from patent US5413915A (priority 1991, dated 1995).

Columns and labels:
rat liver microsomes [1] = test: Color development in detection elements with different leuco dyes (Table 2); format: biochemical; settings: dye response versus leuco-PRA response over test chemicals
Procedure: Solutions containing 0.5 mM of the respective dyes in 0.1 M TRIS buffer, pH=7.4 (except for nitro blue tetrazolium, 5.0 mM in 50% ethanolic TRIS, pH=7.4) were bleached with a few crystals of sodium sulfite or sodium dithionite, then plied in 0.02 mL aliquots as test spots on a clear sheet of transparency film. Spontaneous color development in air was noted (Table 2). Subsequently, a suspension of rat liver microsomes containing 1 mM NADPH and 1 mg/mL gelatin in 0.1 M TRIS-MOPS buffer (pH=7.7) was plied in 0.05 mL aliquots over the dried leuco-dye test spots. After drying, color development condition was noted, and the test spots saved for exposure tests to chemical substances (Table 2). Exposures were carried out by layering 0.01 mL of 0.1-1.0 M solutions of test chemical substances onto the test spots, and changes in color noted over time.

rat liver microsomes [2] = test: Wipe test of coated glove with detection element (Example 11); format: biochemical; settings: for Estimated metabolized dose: about 1/3 of microsomes benzo(a)pyrene-induced
[3] = absorption spectrum of exposed element

Row | Compound | Concordance to PRA (rat liver microsomes [1]) | also measured
1 | Nc1c(N=Nc2ccc([N+](=O)[O-])cc2)c(S(=O)(=O)O)cc2cc(S(=O)(=O)O)c(N=Nc3ccccc3)c(O)c12 [Naphthol Blue-Black, Naphthol Blue Black] | 1/5 | –
2 | Cc1cc2nc3cc(C)c(N)cc3[n+](-c3ccccc3)c2cc1N.[Cl-] [Safranin O] | 1/5 | –
3 | CN(C)c1ccc(C(=C2C=CC(=[N+](C)C)C=C2)c2ccc([N+](C)(C)C)cc2)cc1.[Cl-].[Cl-] [Methyl Green, methyl green] | 3/5 | –
4 | Oc1ccccc1 [Phenol] | – | Estimated metabolized dose (rat liver microsomes [2]): ~20 nmols; Metabolites, as 1,4-benzoquinone (rat liver microsomes [2]; [3]): ~20 nmols
5 | methyl violet | 4/5 | –
6 | COc1cc(-c2ccc(-n3nc(-c4ccccc4)n[n+]3-c3ccc([N+](=O)[O-])cc3)c(OC)c2)ccc1-n1nc(-c2ccccc2)n[n+]1-c1ccc([N+](=O)[O-])cc1 [NBTZ, Nitro Blue Tetrazolium] | 0/5 | –
7 | c1ccc2c(c1)cc1ccc3cccc4ccc2c1c34 [Benzo(a)pyrene] | – | Estimated metabolized dose (rat liver microsomes [2]): approximately 93 nmols; Residual unmetabolized compound in detection element (rat liver microsomes [2]; [3]): 7 nmols
8 | Nile Blue A | 4/5 | –
